Results are given in words; binding and its absence hold for the method and conditions named. In cells and extracts the contact can be indirect. A result given as binding can be weak or reduced; the word gives no strength. Tags and fused reporters may be left off the sequences shown.
Experiments:
[1] = target: T1, FILIP d872-1111 (3 x FLAG tagged) (rat) (UniProt Q8K4T4); test: co-IP; COS-7 cells transfected with FLAG-tagged FILIP or deletion mutants; immunoprecipitation with anti-FLAG M2 on Protein G Dynabeads, 4°C, 3 hours; blots with anti-Hsc70 or anti-NMHCIIb; in Fig 4E also with expression of Hsc70 or Hsc70 K71M
T1 sequence: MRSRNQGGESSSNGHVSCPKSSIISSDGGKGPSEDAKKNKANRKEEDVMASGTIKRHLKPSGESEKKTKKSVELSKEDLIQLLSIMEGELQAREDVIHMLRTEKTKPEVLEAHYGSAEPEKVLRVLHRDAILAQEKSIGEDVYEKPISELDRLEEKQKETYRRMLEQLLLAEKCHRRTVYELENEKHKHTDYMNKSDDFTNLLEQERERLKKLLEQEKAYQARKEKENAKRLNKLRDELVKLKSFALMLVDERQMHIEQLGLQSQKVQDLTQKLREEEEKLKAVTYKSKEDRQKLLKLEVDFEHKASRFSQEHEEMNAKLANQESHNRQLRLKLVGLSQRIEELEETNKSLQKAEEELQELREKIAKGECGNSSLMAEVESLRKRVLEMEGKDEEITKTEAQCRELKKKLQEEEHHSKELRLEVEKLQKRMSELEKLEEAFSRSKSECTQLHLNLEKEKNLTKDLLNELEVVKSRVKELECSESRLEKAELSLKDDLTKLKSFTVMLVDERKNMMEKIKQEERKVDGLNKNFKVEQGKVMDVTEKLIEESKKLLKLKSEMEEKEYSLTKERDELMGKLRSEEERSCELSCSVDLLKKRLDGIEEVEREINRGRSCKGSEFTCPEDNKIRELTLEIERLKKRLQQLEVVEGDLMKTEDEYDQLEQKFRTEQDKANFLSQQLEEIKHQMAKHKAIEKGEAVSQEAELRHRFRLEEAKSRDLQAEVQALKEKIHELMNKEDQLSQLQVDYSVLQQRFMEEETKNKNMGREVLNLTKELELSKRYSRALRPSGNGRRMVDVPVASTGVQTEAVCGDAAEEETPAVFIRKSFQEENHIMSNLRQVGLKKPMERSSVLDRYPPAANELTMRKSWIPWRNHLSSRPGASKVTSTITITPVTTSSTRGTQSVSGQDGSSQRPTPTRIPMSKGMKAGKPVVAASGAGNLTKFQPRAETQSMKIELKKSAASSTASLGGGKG

[2] = target: T2, FILIP d248-442 (3 x FLAG tagged) (rat) (UniProt Q8K4T4); test: as above
T2 sequence: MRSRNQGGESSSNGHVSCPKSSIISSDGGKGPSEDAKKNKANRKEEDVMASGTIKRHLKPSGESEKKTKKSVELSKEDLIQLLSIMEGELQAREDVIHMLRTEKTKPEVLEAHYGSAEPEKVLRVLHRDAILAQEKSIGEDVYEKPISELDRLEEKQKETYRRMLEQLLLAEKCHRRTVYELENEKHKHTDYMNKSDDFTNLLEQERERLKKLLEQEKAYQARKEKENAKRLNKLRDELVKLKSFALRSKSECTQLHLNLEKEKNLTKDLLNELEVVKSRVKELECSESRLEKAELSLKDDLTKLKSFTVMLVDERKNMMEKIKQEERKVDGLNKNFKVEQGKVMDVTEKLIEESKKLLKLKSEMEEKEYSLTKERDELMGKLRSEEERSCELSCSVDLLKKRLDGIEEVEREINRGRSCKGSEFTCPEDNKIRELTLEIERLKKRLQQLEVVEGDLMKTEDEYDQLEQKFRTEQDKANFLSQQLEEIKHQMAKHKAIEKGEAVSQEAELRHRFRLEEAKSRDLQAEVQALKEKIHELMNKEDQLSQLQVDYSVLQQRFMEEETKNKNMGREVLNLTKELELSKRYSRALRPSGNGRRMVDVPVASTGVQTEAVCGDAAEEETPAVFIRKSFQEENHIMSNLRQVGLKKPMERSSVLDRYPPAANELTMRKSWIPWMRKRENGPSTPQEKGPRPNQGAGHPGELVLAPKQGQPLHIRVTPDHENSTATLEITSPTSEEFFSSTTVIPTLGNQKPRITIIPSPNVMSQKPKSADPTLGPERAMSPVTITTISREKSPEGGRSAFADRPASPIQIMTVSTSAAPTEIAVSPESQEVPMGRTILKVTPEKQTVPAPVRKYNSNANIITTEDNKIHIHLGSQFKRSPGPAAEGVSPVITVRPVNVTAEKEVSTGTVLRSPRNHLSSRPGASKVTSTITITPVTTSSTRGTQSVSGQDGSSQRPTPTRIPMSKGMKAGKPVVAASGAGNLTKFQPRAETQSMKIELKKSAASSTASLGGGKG

binding [1]: binds | binding [2]: binds
Substance: non-muscle myosin IIb (endogenous, COS-7 cells)
